According to the supplement of paper PMC10338343:
± gives the standard deviation. Only a part is listed here, and it is no random draw. The uncertainty is large for many entries.

What follows are sequences tested on MIWI (PIWIL1) piRISC loaded with L1MC piRNA (30 nt) (assay: pre-steady-state target cleavage rate (min^-1); MIWI and MILI are mouse PIWI proteins and EfPiwi is from a freshwater sponge; tags in brackets are library labels; higher = faster piRNA-guided slicing of the target). Settings: guide: L1MC piRNA 5'p-UAACUAAAUACUAUGCAAGCUGUAGGUCCU; auxiliary factor: 500 nM mouse GTSF1.
How it was run: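 The pre-steady-state cleavage rate was calculated from a burst-and-steady-state fit. Data came from Cleave-'n-Seq, in which […] transcribed, DNA-blocked target RNA library was mixed with 1 nM active affinity-purified piRISC carrying one synthetic guide, with or without 500 nM GTSF1 partner protein, in HEPES–potassium acetate buffer at 33 °C for 0–8 or 0–960 min. Uncleaved targets were sequenced and normalised to depth and to weakly complementary targets, three trials were pooled, and k3 was capped at 0.0001 min^-1.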
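Also: 1 nM active piRISC with 0.1 nM target library at 33 °C single turnover.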

Row | Sequence | pre-steady-state target cleavage rate
1 | UCGACCAACAGCUUGCAUAGUAUUUAGAUA | 0.54 ± 0.029
2 | AGGACCUACAGCUUGCAUGUAUUUAGUUA | 0.485 ± 0.048
3 | UGGACCUACUGCUUGCAUAGUAAUUAGUUA | 0.866 ± 0.04
4 | AGGACACUACAGCUUGCAUAGUAUUUAGUUA | 1.13 ± 0.083
5 | UCCUGCAUGAGCUUGCAUAGUAUUUAGUUA | 0.92 ± 0.051
6 | UCCAGCUACAGCUUGCUUAGUAUUUAGUUA | 0.78 ± 0.039
7 | ACGACGUACAGCUUGCAUAGUAUUUAGUUA | 1.55 ± 0.071
8 | UGGACCUACAGGUUGGAUAGUAUUUAGUUA | 1.33 ± 0.091
9 | UGGAGGAACAGCUUGCAUAGUAUUUAGAAA | 0.364 ± 0.037
10 | UCCUGGAUGUCGAACCAUACAUUUUAGUUA | 0.000198 ± 0.015
11 | UGGACCUACGCUUGCAUAGUAUUUAGUUA | 1.4 ± 0.081
12 | UGGACCUACAGCAACCAUAGUAUUUACAAA | 0.000856 ± 0.0065
13 | UCCAUCCUACAGCUUGCAUAGUAUUUAGUUA | 0.558 ± 0.029
14 | UGGACCUACAGCUUGCAUUCAAUUUACAAA | 0.00141 ± 0.0055
15 | AGGACCUACACCUUGGAUAGUAUUUAGUUA | 0.817 ± 0.061
16 | AGGCCUACAGCUUGCAUAGUAUUUAGUUA | 1.41 ± 0.075

Same assay, conditions: guide: L1MC piRNA 5'p-UAACUAAAUACUAUGCAAGCUGUAGGUCCU; auxiliary factor: none (no GTSF1)

Row | Sequence | pre-steady-state target cleavage rate
17 | AGGACGAUCAGCUUGCAUAGUAUUUAGAAA | 0.0104 ± 0.0037
18 | AGGACCUCACAGCUUGCAUAGUAUUUAGUUA | 0.102 ± 0.017
19 | UGGACCUACAGCUUGCAUAGAAUUUACAAA | 0.00285 ± 0.0031
20 | UGCACCUACAGCUUGGAUAGUAUUUAGUUA | 0.05 ± 0.008
21 | UGGACCUACAGCUUAGCAUAGUAUUUAGUUA | 0.0281 ± 0.0051
22 | UGGAGCUUCAGCUUGCAUAGUAUUUAGUUA | 0.0706 ± 0.01
23 | UCCUGCUACAGCUUGCAAUCUAUUUUCAAA | 0.000219 ± 0.019
24 | AGGACUACAGCUUGCAUAGUAUUUAGUUA | 0.0945 ± 0.016
25 | UCCACCUACAGCUUGCAUAUUAUUUAGUUA | 0.0312 ± 0.007
26 | UCCUGGAUGUGCUUGCAUAGUAUUUGUUA | 0.00167 ± 0.0048
27 | UGGACCUACAGCUUGCUAUGUAUUUAGUUA | 0.00588 ± 0.001
28 | UCGACCGACAGCUUGCAUAGUAUUUAGUUA | 0.0741 ± 0.012
29 | UGGACCUACAGCUUGCAUACAUUUUAGUUA | 0.000283 ± 0.011
30 | UCCUGGAUGUCGUUCGAUAGUAUUUAGUUA | 0.000461 ± 0.013
31 | UCCUGGAUGUCGAACGUAAGUUUUUAGUAA | 0.000157 ± 0.036
32 | UCGACCUACAGGUUGCAUAGUAUUUACUUA | 0.025 ± 0.0051
33 | UCCUGGUACAGCUUGCAUAGCUAUUUAGUUA | 0.00129 ± 0.0068
34 | AGGACCUAUCAGCUUGCAUAGUAUUUAGUUA | 0.0769 ± 0.013
35 | AGGACCCUACAGCUUGCAUAGUAUUUAGUUA | 0.0716 ± 0.012
36 | UGGACCAACAGCUUGCAUAGUAUUUAGUAA | 0.0641 ± 0.015

Row | Sequence | pre-steady-state target cleavage rate
37 | AGGACCUAACAGCUUGCAUAGUAUUUAGUUA | 0.0788 ± 0.016
38 | UGGAGCUACAGCUUGCUUAGUAUUUAGUUA | 0.0391 ± 0.0074
39 | AGGAGCUACACCUUGCAUAGUAUUUAGUUA | 0.0609 ± 0.012
40 | UGGACCUACAGCCUGCAUAGUAUUUAGUUA | 0.0741 ± 0.013
41 | UCGACCAACAGCUUGCAUAGUAUUUAGAUA | 0.0297 ± 0.0066
42 | AGGACCUACAGCUUGCAUGUAUUUAGUUA | 0.00718 ± 0.0034
43 | UGGACCUACUGCUUGCAUAGUAAUUAGUUA | 0.033 ± 0.0084
44 | AGGACACUACAGCUUGCAUAGUAUUUAGUUA | 0.0749 ± 0.011
45 | UCCUGCAUGAGCUUGCAUAGUAUUUAGUUA | 0.0506 ± 0.01
46 | UCCAGCUACAGCUUGCUUAGUAUUUAGUUA | 0.0235 ± 0.004
47 | ACGACGUACAGCUUGCAUAGUAUUUAGUUA | 0.077 ± 0.013
48 | UGGACCUACAGGUUGGAUAGUAUUUAGUUA | 0.0484 ± 0.0079
49 | UGGAGGAACAGCUUGCAUAGUAUUUAGAAA | 0.00934 ± 0.004
50 | UCCUGGAUGUCGAACCAUACAUUUUAGUUA | 0.000113 ± 0.044
51 | UGGACCUACGCUUGCAUAGUAUUUAGUUA | 0.046 ± 0.008
52 | UGGACCUACAGCAACCAUAGUAUUUACAAA | 0.000469 ± 0.01
53 | UCCAUCCUACAGCUUGCAUAGUAUUUAGUUA | 0.0561 ± 0.0096
54 | UGGACCUACAGCUUGCAUUCAAUUUACAAA | 0.000168 ± 0.011
55 | AGGACCUACACCUUGGAUAGUAUUUAGUUA | 0.0497 ± 0.0086
56 | AGGCCUACAGCUUGCAUAGUAUUUAGUUA | 0.107 ± 0.019
